Measured values reported in patent publication US20030212015A1, “Specific modulation of Th1/Th2 cytokine expression by ribavirin in activated T-lymphocytes” (priority 1996, published 2003).
Some results were stated once for a whole list of compounds, not compound by compound.

Tested on: T-cells
Experiment: T cell viability by propidium iodide exclusion (flow cytometry)
Type: cell-based, human
Conditions: all concentrations used; range 90-99%; multiple donors

Compound	percentage of live cells which excluded propidium iodide [%]
NC(=O)c1ncn([C@@H]2O[C@H](CO)[C@@H](O)[C@H]2O)n1 [Ribavirin, 1-β-D-ribofuranosyl-1,2,4-triazole-3-carboxamide]	> 90
interferon-α	> 90
